Source: PMC4161973

Protein sequences, listed by entry. Tags and fused reporters are not part of them. Lines headed by an entry give the natural chain unless they say otherwise; changes in a name come on top.
UniProt P39938: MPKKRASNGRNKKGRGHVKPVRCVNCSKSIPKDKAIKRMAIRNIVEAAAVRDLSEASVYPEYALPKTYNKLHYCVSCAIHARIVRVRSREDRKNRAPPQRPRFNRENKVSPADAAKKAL

Legend:
[1] = target: T1, GST-tagged Sxm1 (S. cerevisiae) (UniProt Q04175); assay: pull-down; GST-importins immobilised on Glutathione Sepharose, incubated with E. coli lysate containing ∼4 µM eS26^FLAG (or its mutants, or GFP-eS26) in PBSKMT with competing E. coli lysates for 1 hr at 4°C; Coomassie Blue staining or Western; only the target purified
T1 sequence: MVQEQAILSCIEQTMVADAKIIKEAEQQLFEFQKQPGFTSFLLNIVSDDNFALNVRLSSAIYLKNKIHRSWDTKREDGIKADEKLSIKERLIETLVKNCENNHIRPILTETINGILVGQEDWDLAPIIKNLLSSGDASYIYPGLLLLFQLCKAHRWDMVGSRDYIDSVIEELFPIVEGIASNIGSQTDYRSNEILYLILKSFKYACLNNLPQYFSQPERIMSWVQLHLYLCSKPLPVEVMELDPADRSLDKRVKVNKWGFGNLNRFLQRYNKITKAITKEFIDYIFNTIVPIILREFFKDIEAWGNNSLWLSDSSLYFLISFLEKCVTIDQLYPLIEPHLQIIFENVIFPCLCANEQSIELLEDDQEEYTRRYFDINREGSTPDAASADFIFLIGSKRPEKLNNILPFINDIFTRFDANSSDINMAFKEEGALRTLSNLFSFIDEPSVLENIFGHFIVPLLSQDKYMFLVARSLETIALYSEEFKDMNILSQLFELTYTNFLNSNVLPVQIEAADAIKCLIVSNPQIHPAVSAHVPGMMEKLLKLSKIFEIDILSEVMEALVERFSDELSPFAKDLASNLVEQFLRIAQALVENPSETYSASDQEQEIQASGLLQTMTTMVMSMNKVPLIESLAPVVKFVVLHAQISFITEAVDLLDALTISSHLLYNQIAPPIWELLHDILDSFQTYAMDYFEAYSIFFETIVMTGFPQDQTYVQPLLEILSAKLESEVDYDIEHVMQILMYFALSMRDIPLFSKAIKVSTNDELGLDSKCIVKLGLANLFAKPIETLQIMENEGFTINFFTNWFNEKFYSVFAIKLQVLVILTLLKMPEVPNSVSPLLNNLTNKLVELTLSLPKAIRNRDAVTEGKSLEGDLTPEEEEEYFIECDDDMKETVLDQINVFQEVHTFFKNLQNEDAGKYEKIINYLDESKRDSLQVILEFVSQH

[2] = target: T2, GST-Kap104 (S. cerevisiae) (UniProt P38217); assay: pull-down; dissociation assay, 1 hr: GST-importin:r-protein^FLAG complexes pre-formed on Glutathione Sepharose (r-protein from E. coli lysate) incubated with buffer alone, 1.5 µM RanGTP, 1.5 µM Tsr2 or His6-Tsr2, or 3 nM 3'-end of 18S rRNA for 1 hr at 4°C; only the target purified
T2 sequence: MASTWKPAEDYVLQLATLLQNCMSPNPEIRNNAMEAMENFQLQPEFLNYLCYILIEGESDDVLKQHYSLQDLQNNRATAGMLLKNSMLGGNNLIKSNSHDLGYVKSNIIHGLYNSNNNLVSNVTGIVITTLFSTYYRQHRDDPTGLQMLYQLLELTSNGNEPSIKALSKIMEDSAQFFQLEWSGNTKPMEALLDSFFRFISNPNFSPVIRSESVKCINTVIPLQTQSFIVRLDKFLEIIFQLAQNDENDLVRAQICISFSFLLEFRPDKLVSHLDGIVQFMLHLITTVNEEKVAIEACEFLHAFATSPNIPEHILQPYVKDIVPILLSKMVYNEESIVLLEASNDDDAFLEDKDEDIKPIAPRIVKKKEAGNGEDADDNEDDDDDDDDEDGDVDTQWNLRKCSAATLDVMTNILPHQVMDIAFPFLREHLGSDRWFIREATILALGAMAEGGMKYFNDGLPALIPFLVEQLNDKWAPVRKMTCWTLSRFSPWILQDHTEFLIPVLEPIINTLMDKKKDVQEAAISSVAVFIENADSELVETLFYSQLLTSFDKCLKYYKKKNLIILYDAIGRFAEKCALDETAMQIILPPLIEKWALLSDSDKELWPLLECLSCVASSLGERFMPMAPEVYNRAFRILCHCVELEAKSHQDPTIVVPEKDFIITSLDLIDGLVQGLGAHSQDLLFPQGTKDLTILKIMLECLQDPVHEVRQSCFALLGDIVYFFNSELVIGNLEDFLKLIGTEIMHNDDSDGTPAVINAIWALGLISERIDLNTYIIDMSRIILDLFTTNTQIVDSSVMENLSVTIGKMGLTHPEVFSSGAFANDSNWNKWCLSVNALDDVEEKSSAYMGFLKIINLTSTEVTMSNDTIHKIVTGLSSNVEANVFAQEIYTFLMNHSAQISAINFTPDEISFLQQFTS

eS26^FLAG (from UniProt P39938)
binding [1]: binds weakly
binding [2]: binds

These are yes or no findings as the source states them, for the method shown. Binding seen in cells or lysates may run through a third protein. Binding calls can cover weak binding; strength is not graded here. Tags and fused reporters may be left off the sequences shown.
